We go through one substance from PMC11237669.

Amino acid sequences for entries named in this document (tags omitted). Residues count along the entry.
UniProt P11021, residues 19-654: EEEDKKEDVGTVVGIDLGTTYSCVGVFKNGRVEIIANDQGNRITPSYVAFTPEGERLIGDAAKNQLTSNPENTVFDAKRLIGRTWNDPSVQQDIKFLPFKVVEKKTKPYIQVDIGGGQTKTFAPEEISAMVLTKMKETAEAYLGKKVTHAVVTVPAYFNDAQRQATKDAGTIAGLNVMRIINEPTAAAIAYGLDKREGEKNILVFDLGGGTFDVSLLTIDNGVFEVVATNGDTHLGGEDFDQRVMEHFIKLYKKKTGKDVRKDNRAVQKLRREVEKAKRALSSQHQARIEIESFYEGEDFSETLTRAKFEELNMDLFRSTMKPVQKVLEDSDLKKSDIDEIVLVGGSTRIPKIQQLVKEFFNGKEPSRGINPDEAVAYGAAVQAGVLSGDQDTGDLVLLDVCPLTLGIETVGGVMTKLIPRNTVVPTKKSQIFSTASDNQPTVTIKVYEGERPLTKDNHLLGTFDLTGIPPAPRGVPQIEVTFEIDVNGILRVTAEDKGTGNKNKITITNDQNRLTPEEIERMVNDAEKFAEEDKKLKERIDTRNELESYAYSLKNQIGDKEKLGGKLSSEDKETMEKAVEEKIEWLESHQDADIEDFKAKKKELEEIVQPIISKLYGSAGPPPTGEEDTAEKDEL

Results are given in words; binding and its absence hold for the method and conditions named. Binding seen in cells or lysates may run through a third protein. Some binding calls cover weakened binding; strength is not graded here. Where a sequence is shown, tags or fusion partners need not be part of it.

This assay has as its target T1, HA-tagged CHUK (human (amplified from 293T cells)) (UniProt O15111).
T1 sequence: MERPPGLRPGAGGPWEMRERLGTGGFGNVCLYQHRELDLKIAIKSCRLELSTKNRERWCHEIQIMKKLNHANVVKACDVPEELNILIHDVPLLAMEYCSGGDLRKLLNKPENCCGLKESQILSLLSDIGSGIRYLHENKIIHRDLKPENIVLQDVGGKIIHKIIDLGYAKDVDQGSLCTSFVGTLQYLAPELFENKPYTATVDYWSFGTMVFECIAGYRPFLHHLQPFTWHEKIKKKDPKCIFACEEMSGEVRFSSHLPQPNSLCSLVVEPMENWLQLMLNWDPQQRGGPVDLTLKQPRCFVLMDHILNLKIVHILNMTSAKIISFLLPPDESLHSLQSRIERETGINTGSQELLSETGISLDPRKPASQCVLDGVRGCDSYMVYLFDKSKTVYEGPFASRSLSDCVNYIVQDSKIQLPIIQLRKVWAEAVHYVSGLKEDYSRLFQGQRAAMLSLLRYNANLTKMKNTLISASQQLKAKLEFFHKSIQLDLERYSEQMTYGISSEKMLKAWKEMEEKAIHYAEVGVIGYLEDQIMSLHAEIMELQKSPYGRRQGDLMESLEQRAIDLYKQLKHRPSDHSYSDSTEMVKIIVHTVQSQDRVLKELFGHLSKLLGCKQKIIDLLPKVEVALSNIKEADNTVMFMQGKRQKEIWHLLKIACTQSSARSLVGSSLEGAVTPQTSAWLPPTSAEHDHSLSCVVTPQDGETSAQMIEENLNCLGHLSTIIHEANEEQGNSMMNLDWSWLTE
Nature of the assay: co-IP; 293T cells co-transfected with the two tagged plasmids (2.5 µg each); RIPA whole-cell lysates, sonicated; precipitated with anti-Flag, anti-His or anti-HA nanobody magnetic beads overnight at 4°C; immunoblot. A general note: A western blot detects proteins with antibodies after separation by electrophoresis.

With “His-tagged GRP78 (78 kDa glucose-regulated protein) (from UniProt P11021 19-654)”, the binding result was “binds”.
